Test results reported in the supplement of paper PMC10663445.
Where a name gives a salt, the structure may show the parent alone. The list shows a part of the results. Single values are uncertain, as repeats are few or missing.

tested on: hsa-miR-132-3p; test: miR-132-3p level in NGN2-iNs after compound treatment (TMM-normalised, ComBat batch-corrected) (batch-corrected normalised expression (arbitrary units)); higher = higher miR-132-3p expression; conditions: 10 µM; 24 h; human iPSC-derived NGN2 neurons (BR43)

Compound | miR-132-3p level in NGN2-iNs
CCc1cc(Nc2nccc(-c3c(-c4ccc(OC)c(C(=O)Nc5c(F)cccc5F)c4)nc4ccccn34)n2)c(OC)cc1N1CCC(N2CCN(S(C)(=O)=O)CC2)CC1 | 0.338
Nc1ccn([C@H]2CC[C@@H](CO)O2)c(=O)n1 [Zalcitabine] | 0.171
C[C@@H](O)[C@H]1C(=O)N2C(C(=O)O)=C(S[C@@H]3CN[C@H](CNS(N)(=O)=O)C3)[C@H](C)[C@H]12 [Doripenem Hydrate] | -1.2
CC(C)(C#N)c1cc(Cn2cncn2)cc(C(C)(C)C#N)c1 [Anastrozole] | 0.34
COc1cc2nccc(Oc3ccc(NC(=O)Nc4cc(C)on4)c(Cl)c3)c2cc1OC [Tivozanib (AV-951)] | 0.0531
CNC(=O)c1cccc(-c2ccc3c(N4CCOC[C@@H]4C)nc(N4CCOC[C@@H]4C)nc3n2)c1 [Vistusertib (AZD2014)] | -0.32
CN(C)CCOC(C)(c1ccccc1)c1ccccn1 (stereo not given) [Doxylamine Succinate] | 1.34
COc1cccc(-c2cc(=O)c3ccccc3o2)c1N | 0.608
CC(C)(C)[N+]([O-])=Cc1ccc(S(=O)(=O)O)cc1S(=O)(=O)O [Disufenton sodium] | -0.0101
CN1CCN(C(c2ccccc2)c2ccccc2)CC1 [Cyclizine 2HCl] | -0.539
CC(C)OC(=O)C1=CN(C(=O)c2ccc(F)c(F)c2)CC(C)(C)c2c1[nH]c1ccccc21 [Turofexorate Isopropyl (XL335)] | 1.31
Cc1ccc(F)c(NC(=O)Nc2ccc(-c3cccc4[nH]nc(N)c34)cc2)c1 [Linifanib (ABT-869)] | -0.134
C[C@]12CC[C@@H]3c4ccc(OC(=O)c5ccccc5)cc4CC[C@H]3[C@@H]1CC[C@@H]2O [Estradiol Benzoate] | -0.148
CC[C@@H](C)Nc1cc(C(=O)N[C@H]2C[C@H]3CC[C@@H](C2)N3c2ccc(C(=O)C3CC3)cn2)c(C)cc1C(N)=O | 2
Cc1ccc(NC(=O)c2cccc(C(C)(C)C#N)c2)cc1Nc1ccc2ncn(C)c(=O)c2c1 | 0.242
OCCN(CCO)c1nc(N2CCCCC2)c2nc(N(CCO)CCO)nc(N3CCCCC3)c2n1 [Dipyridamole] | 0.467
CNc1nc(Nc2cn(C(C)(C)C#N)nc2C)ncc1C(F)(F)F | -0.303
COCCCN1CCC(NC(=O)c2cc(Cl)c(N)c3c2OCC3)CC1 [Prucalopride] | -0.963
COCCCN1CCC(NC(=O)c2cc(Cl)c(N)c3c2OCC3)CC1 [Prucalopride Succinate] | 0.515
O=C(Nc1ccncc1)c1cc([N+](=O)[O-])ccc1Cl | -1.16
O=C(CCCN1CCN(c2ccccn2)CC1)c1ccc(F)cc1 [Azaperone] | 2.32
C[C@H](CCC(=O)O)[C@H]1CC[C@H]2[C@@H]3[C@@H](O)C[C@@H]4C[C@H](O)CC[C@]4(C)[C@H]3CC[C@]12C [Ursodiol] | 1.51
Cc1ccc(=O)n(-c2ccccc2)c1 [Pirfenidone] | 0.903
COc1ccc(C2CC(=O)c3c(O)cc(OC4OC(COC5OC(C)C(O)C(O)C5O)C(O)C(O)C4O)cc3O2)cc1OC (stereo not given) [Methyl-Hesperidin] | 1.15
CN(C)C(=O)[C@H](O)[C@H](Cc1ccccc1)NC(=O)c1cc2cc(Cl)ccc2[nH]1 | 0.0114

Random excerpt: 2 entries already listed.
Compound | miR-132-3p level in NGN2-iNs
C[C@@H](O)[C@H]1C(=O)N2C(C(=O)O)=C(S[C@@H]3CN[C@H](CNS(N)(=O)=O)C3)[C@H](C)[C@H]12 [Doripenem Hydrate] | -1.2
OCCN(CCO)c1nc(N2CCCCC2)c2nc(N(CCO)CCO)nc(N3CCCCC3)c2n1 [Dipyridamole] | 0.467

Remaining list, next part

Compound | miR-132-3p level in NGN2-iNs
O=C(Oc1cc(S(=O)(=O)c2ccccc2)ccc1[N+](=O)[O-])c1ccc(Cl)cc1 | -0.345
N#CCNC(=O)c1ccc(-c2ccnc(Nc3ccc(N4CCOCC4)cc3)n2)cc1 [Momelotinib (CYT387)] | -3.44
OCc1c[nH]c2ccccc12 [Indole-3-carbinol] | -0.837
CS(=O)(=O)OCCCCOS(C)(=O)=O [Busulfan] | 1.76
Cc1ncc(-c2ccnc(Nc3ccc(S(C)(=O)=O)cc3)n2)n1C(C)C | 1.72
C[C@@H](O[C@H]1OCCN(Cc2nn(P(=O)(O)O)c(=O)[nH]2)[C@H]1c1ccc(F)cc1)c1cc(C(F)(F)F)cc(C(F)(F)F)c1 [Fosaprepitant dimeglumine salt] | -0.913
CCC(C)(Oc1ccc(C2(c3ccc(OC(C)(CC)C(=O)O)cc3)CCCCC2)cc1)C(=O)O (stereo not given) [Clinofibrate] | -0.589
CN1CCc2c(c3ccccc3n2Cc2ccc(C(=O)NO)cc2)C1 [Tubastatin A HCl] | -0.72
CN1CCc2c(c3ccccc3n2Cc2ccc(C(=O)NO)cc2)C1 [Tubastatin A] | -1.12
CN(C)C(=O)c1ccc(S(=O)(=O)c2ccc(NC(=O)C(C)(O)C(F)(F)F)c(Cl)c2)cc1 (stereo not given) | -0.744
Cc1c(CN2CCN(C(=O)[C@H](C)O)CC2)sc2c(N3CCOCC3)nc(-c3cnc(N)nc3)nc12 [Apitolisib (GDC-0980)] | 1.23
Cc1cnc(-c2cc(N3CCN(C(=O)CCS(C)(=O)=O)CC3)ncc2Cl)c(C)c1 | -0.341
c1ccc2c(CC3=NCCN3)cccc2c1 [Naphazoline HCl] | 0.291
CC(C=CC(=O)NO)=CC(C)C(=O)c1ccc(N(C)C)cc1 (stereo not given) [Trichostatin A (TSA)] | -0.591
CCN(CC)CC(=O)Nc1c(C)cccc1C [Lidocaine] | -1.87
CC(=O)NS(=O)(=O)c1ccc(N)cc1 [Sulfacetamide Sodium] | -0.726
C=C1CC[C@@H]2[C@](C)(CO)[C@H](O)CC[C@@]2(C)[C@@H]1C/C=C1/C(=O)OC[C@H]1O [Andrographolide] | 1.6
OCc1ccccc1O[C@@H]1O[C@H](CO)[C@@H](O)[C@H](O)[C@H]1O [Salicin] | 1.18
CN1C(CCl)Nc2cc(Cl)c(S(N)(=O)=O)cc2S1(=O)=O (stereo not given) [Methyclothiazide] | -0.29
COc1cccc2c1C(=O)c1c(O)c3c(c(O)c1C2=O)C[C@@](O)(C(C)=O)C[C@@H]3O[C@H]1C[C@H](N)[C@H](O)[C@H](C)O1 [Daunorubicin HCl] | -0.0207
CNC(=O)c1cc(Oc2ccc(NC(=O)Nc3ccc(Cl)c(C(F)(F)F)c3)cc2)ccn1 [Sorafenib Tosylate] | 0.0724
CNC(=O)c1cc(Oc2ccc(NC(=O)Nc3ccc(Cl)c(C(F)(F)F)c3)cc2)ccn1 [Sorafenib] | -1.05
Cc1ccc(S(=O)(=O)Cc2nc(-c3ccc(C(=O)NCc4cccnc4)cc3)oc2C)cc1 | 2.04
OCCn1cc(-c2cnc3nnn(Cc4ccc5ncccc5c4)c3n2)cn1 | 0.324
Cc1ncc([N+](=O)[O-])n1CC(C)O (stereo not given) [Secnidazole] | 0.475

Compound | miR-132-3p level in NGN2-iNs
COc1ccc2cc([C@H](C)C(=O)O)ccc2c1 [Naproxen Sodium] | -0.502
C[C@]12CCC(=O)C=C1[C@@H]1C[C@@H]1[C@H]1[C@@H]3[C@@H]4C[C@@H]4[C@@]4(CCC(=O)O4)[C@@]3(C)CC[C@@H]12 [Drospirenone] | 0.122
O=C(O)c1cc(=O)[nH]c(=O)[nH]1 [Orotic acid (6-Carboxyuracil)] | 0.106
Cc1ccccc1C(C(=O)NC1CCCCC1)N(C(=O)Cn1ccnc1C)c1cccc(F)c1 (stereo not given) | -0.289
CC1(C)S[C@@H]2[C@H](NC(=O)[C@H](N)c3ccccc3)C(=O)N2[C@H]1C(=O)O [Ampicillin sodium] | 0.651
C=C[C@H]1CN2CC[C@H]1C[C@H]2[C@H](O)c1ccnc2ccc(OC)cc12 [Quinine HCl Dihydrate] | 1.78
Oc1ccc(-c2nc(-c3ccc(F)cc3)c(-c3ccncc3)[nH]2)cc1 | -0.216
NC(=O)c1cnccn1 [Pyrazinamide] | -0.294
C#Cc1cccc(Nc2ncnc3cc(OCCOC)c(OCCO)cc23)c1 | 0.0422
Cc1cnc(-c2ccccc2C(C)C)nc1NCc1ccc(-n2ccnn2)cc1 | -0.607
Nc1ccc(-c2ccc3ncc4ccc(=O)n(-c5cccc(C(F)(F)F)c5)c4c3c2)cn1 [Torin 2] | -1.25
CSc1nc2cc(Cl)c(Oc3cccc(Cl)c3Cl)cc2[nH]1 [Triclabendazole] | 0.884
CN(C(Cc1ccc(OS(=O)(=O)c2cccc3cnccc23)cc1)C(=O)N1CCN(c2ccccc2)CC1)S(=O)(=O)c1cccc2cnccc12 (stereo not given) | 0.115
CC(=O)O[C@H]1C(=O)[C@@]2(C)[C@H]([C@H](OC(=O)c3ccccc3)[C@]3(O)C[C@H](OC(=O)[C@H](O)[C@@H](NC(=O)c4ccccc4)c4ccccc4)C(C)=C1C3(C)C)[C@]1(OC(C)=O)CO[C@@H]1C[C@@H]2O [Paclitaxel] | 0.412
NC(=O)c1cccc(-c2cccc(OC(=O)NC3CCCCC3)c2)c1 | 1.9
CCCNC(=O)Nc1ccc(Oc2ncnc3cc(OC)c(OC)cc23)cc1Cl | 0.706
Cc1cn(-c2cc(NC(=O)c3ccc(C)c(Nc4nccc(-c5cccnc5)n4)c3)cc(C(F)(F)F)c2)cn1 [Nilotinib (AMN-107)] | 0.684
NC(=O)c1ccc(-c2nc(-c3ccccn3)c(-c3ccc4c(c3)OCO4)[nH]2)cc1 | 0.166
CN1C(=O)C(Cc2c[nH]c3ccccc23)NC1=S (stereo not given) [Necrostatin-1] | -0.627
O=S(=O)(O)Oc1ccc(C(c2ccc(OS(=O)(=O)O)cc2)c2ccccn2)cc1 [Sodium Picosulfate] | -0.462
CCn1c(-c2nonc2N)nc2c(C#CC(C)(C)O)ncc(OC[C@H]3CCCNC3)c21 | 0.45
CC(C)OC(=O)C(C)(C)Oc1ccc(C(=O)c2ccc(Cl)cc2)cc1 [Fenofibrate] | -1.41
Cc1ccc(NC(=O)C2(c3ccc4c(c3)OC(F)(F)O4)CC2)nc1-c1cccc(C(=O)O)c1 [VX-809 (Lumacaftor)] | 0.148
CCOC(=O)[C@H](CCc1ccccc1)N[C@@H](C)C(=O)N1C(=O)N(C)C[C@H]1C(=O)O [Imidapril HCl] | -0.733
C[C@@H]1C[C@H]2[C@@H]3CCC4=CC(=O)C=C[C@]4(C)[C@@]3(Cl)[C@@H](O)C[C@]2(C)[C@@]1(OC(=O)c1ccco1)C(=O)CCl [Mometasone furoate] | -0.932

Part of the list above, with each value named.
C#Cc1cccc(Nc2ncnc3cc(OCCOC)c(OCCO)cc23)c1
  miR-132-3p level in NGN2-iNs: 0.0422
Cc1cnc(-c2ccccc2C(C)C)nc1NCc1ccc(-n2ccnn2)cc1
  miR-132-3p level in NGN2-iNs: -0.607
Nc1ccc(-c2ccc3ncc4ccc(=O)n(-c5cccc(C(F)(F)F)c5)c4c3c2)cn1 [Torin 2]
  miR-132-3p level in NGN2-iNs: -1.25
